Reference: patent US9198875B2, “Controlled delivery of bioactive agents from decomposable films” (Massachusetts Institute of Technology, priority 2008, dated 2015)
Some entries share one result that the patent states for a list of compounds.

Assay: Release of small molecules from polymeric cyclodextrin-containing LbL films in phosphate buffer (fluorescence spectroscopy)
Format: physicochemical
Conditions: (Poly A3/poly (BCD)-drug)20 films
Description: Release profiles were investigated by monitoring the release of the small molecule using a fluorimeter and the degradation of non-radiolabeled films. For drug release experiments, 20 bilayer films were constructed using carboxymethylbeta-cyclodextrin polymer:drug conjugate solution. The deposition solutions were prepared by combining 25 μM carboxymethylbeta-cyclodextrin polymers solution in 0.1 M sodium acetate buffer (1 Mn=8,000), with the various small molecules. After fabrication, each twenty bilayer film was immersed in 10 mL phosphate buffer solution (pH 7.4, 137 mM NaCl, 2.7 mM KCl, 10 mM Na2HPO4). A 1 mL sample was extracted at various time points and analyzed via fluorescence spectroscopy. Degradation vials were tightly capped between sample extractions to prevent evaporation of the buffer solution. Raw spectrum data were converted to micrograms (μg) of drug released using a calibration curve for a given molecule at a defined emission wavelength. […]
Formation of poly(BCD): drug inclusion complexes and film construction were achieved by methods as described in Examples 1-3; release studies were performed as described in Example 4. Solubility values and complexation coefficients were determined and/or calculated according to previously published methods (Brewster et al. 2007. “Cyclodextrins as pharmaceutical solubilizers.” Advanced Drug Delivery. 59: 645-666).

Compound	time span over which drug continued to be released
O=C(O)Cc1ccccc1Nc1c(Cl)cccc1Cl [Diclofenac]	at least 12 days
CC(C(=O)O)c1ccc(-c2ccccc2)c(F)c1 (centres unmarked) [Flurbiprofen]	at least 12 days
